Assay results from patent publication US20250163160A1.
Residue numbers refer to the chain shown, from its start. In names and notes the source's numbering stands. These are yes or no findings as the source states them, for the method shown. Some entries that bind do so weakly or less than the wild type.

Chains of the proteins cited; added tags and fusions are not shown. Lines headed by an entry give the natural chain unless they say otherwise; changes in a name come on top.
UniProt Q86Z14: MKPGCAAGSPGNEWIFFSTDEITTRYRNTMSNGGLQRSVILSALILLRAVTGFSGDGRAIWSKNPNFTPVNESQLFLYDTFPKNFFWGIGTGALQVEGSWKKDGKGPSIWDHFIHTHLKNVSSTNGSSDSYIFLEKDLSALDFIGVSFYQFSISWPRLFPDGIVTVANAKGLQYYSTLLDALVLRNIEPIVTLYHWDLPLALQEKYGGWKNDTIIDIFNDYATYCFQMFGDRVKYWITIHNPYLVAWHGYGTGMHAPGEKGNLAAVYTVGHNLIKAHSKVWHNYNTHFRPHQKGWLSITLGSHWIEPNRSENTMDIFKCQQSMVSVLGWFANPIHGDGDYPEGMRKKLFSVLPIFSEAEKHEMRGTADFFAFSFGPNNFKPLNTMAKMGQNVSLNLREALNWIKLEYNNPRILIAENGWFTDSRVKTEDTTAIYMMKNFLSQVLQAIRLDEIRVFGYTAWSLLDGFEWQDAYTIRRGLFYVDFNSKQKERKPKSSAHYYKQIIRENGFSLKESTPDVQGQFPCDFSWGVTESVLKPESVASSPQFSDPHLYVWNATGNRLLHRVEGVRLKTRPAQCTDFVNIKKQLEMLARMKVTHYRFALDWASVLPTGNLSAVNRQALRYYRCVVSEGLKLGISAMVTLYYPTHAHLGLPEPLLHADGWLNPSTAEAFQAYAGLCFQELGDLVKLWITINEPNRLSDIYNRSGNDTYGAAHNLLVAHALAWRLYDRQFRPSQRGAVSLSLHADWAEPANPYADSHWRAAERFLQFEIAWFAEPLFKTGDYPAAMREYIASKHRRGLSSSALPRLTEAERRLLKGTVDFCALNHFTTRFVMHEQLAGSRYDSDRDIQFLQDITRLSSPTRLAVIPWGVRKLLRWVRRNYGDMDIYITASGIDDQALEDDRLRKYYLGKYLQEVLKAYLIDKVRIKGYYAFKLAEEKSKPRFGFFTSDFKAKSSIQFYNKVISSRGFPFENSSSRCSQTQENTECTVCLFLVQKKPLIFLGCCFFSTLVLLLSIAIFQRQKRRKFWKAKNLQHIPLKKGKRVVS

B1: 22H5 variant, heavy chain H2, light chain N92Q (antibody, human IgG2, lambda, V domains shown)
VH: QVTLKESGPVLVKPTETLTLTCTVSGFSLSNARMGVSWIRQPPGKALEWLAHIFSNDEKSYSTSLKSRLTISKDTSKSQVVLTMTNMDPVDTATYYCARILLVGAYYYCGMDVWGQGTTVTVSS
VL: SYVLTQPPSVSVAPGQTARITCGGNNIGSQSVHWYQQKPGQAPVLVVYDDSDRPSGIPERFSGSNSGNTATLTISRVEAGDEADYYCQVWDQTSDHVVFGGGTKLTVLG
B2: 22H5 variant, heavy chain C109S, light chain L2 (antibody, human IgG2, lambda, V domains shown)
VH: B1 VH with C109S
VL: B1 VL with Q92N
B3: 22H5 variant, heavy chain H2, light chain S94A (antibody, human IgG2, lambda, V domains shown)
VH: B1 VH
VL: B1 VL with Q92N, S94A
B4: 37D3 (antibody, human IgG2, kappa, V domains shown)
VH: EVHLVESGGGLAKPGGSLRLSCAASGFTFRNAWMSWVRQAPGKGLEWVGRIKSKTDGGTTDYAAPVKGRFTISRDDSKNTLYLQMNSLKTEDTAEYYCITDRVLSYYAMAVWGQGTTVTVSS
VL: DIVMTQSPLSLPVTPGEPASISCRSSQSLLHSNGYNFLDWYLQKPGQSPQLLIYLGSDRASGVPDRFSGSGSGTEFTLKISRVEAEDVGLYYCMQALQTPCSFGQGTKLEIKR
B5: 20D4 (antibody, human IgG2, kappa, V domains shown)
VH: QVQLVQSGAEVKKPGASVKVSCKVSGYTLTDLSMHWVRQAPGKGLEWMGGFDPEDGETIYAQKFQGRITMTEDTSTDTAYMELSSLRSEDTAVYYCASIVVVPAAIQSYYYYYGMGVWGQGTTVTVSS
VL: DIQLTQSPSSLSASIGDRVTITCRASQDIRYDLGWYQQKPGKAPKRLIYAASSLQSGVPSRFSGSGSGTEFTLTVSSLQPEDFATYYCLQHNSYPLTFGGGTKVEIER
B6: 46D11 (antibody, human IgG2, kappa, V domains shown)
VH: QVTLKEAGPVLVKPTETLTLTCTVSGFSLSNARMGVNWIRQPPGKALEWLAHIFSNDEKSYSTSLKSRLTISKDTSKSQVVLTMTNMDPVDTATYYCARVRIAGDYYYYYGMDVWGQGTTVTVSS
VL: DIQMTQSPSSVSASVGDRVTITCRASQGISIWLAWYQQKPGKAPKLLIYAASSLQSGVPSRFSGSGSGTDFTLTISSLQPEDFATYYCQQANDFPITFGQGTRLEIKR
B7: 18G1 (antibody, human IgG2, kappa, V domains shown)
VH: EVQLLESGGGLVQPGGSLRLSCAASRFTFSTYAMSWVRQAPGKGLEWVSGISGSGVSTHYADSVKGRFTISRDNSKNTLYLQMNSLRAEDTAVYYCAKSLIVVIVYALDHWGQGTLVTVSS
VL: EIVLTQSPGTLSLSPGERATLSCRASQNFDSSYLAWYQQKPGQAPRLLIYGTSSRATGIPDRFSGIGSGTDFTLTINRLEPEDFAMYYCQQYGGSPLTFGGGTEVEIKR
B8: 12E4 (antibody, human IgG2, kappa, V domains shown)
VH: B7 VH with H59Y, H110Y
VL: B7 VL with S32N, T52A, R62N, I66S, N77S, G94S, E104K
B9: 40D2 (antibody, human IgG2, kappa, V domains shown)
VH: QVQLQESGPGLVKPSQTLSLTCTVSGGSISSGGYNWSWIRQHPGKGLEWIGNIYYSGSTYYNPSLKSRVTISVDTSKNQFSLKLRSVTAADTAVYYCARENIVVIPAAIFAGWFDPWGQGTLVTVSS
VL: DFVMTQTPLSLSVTPGQPASISCKSSQSLLQSDGKTYLYWYLQKPGQPPHLLIYEVSNRFSGVPDRFSGSGSGTDFTLKISRVEAEDVGVYYCMQSIQLPRTFGQGTKVEIKR
B10: 17C3 (antibody, human IgG2, lambda, V domains shown)
VH: B1 VH with V103L, C109Y
VL: B1 VL with Q92S, T93S
B11: 22H5 (antibody, human IgG2, lambda, V domains shown)
VH: B1 VH
VL: B1 VL with Q92N

Molecular target: His-tagged human recombinant β-Klotho (human) (UniProt Q86Z14)
Assay: SPR (Biacore), 100 nM mAb over His-tagged β-Klotho captured on anti-His

binding, binds:
B1, B2, B3

Molecular target: soluble human β-Klotho (human) (UniProt Q86Z14)
Assay: SPR (Biacore) binning; soluble FGFR1c/β-Klotho ECD-Fc complex or β-Klotho captured on immobilised antibody

binding, binds:
B4, B5, B6, B7, B8, B9, B10, B11

Molecular target: His-tagged human recombinant β-Klotho (human) (UniProt Q86Z14)
Assay: Biacore: 100 nM mAb injected over His-tagged human β-Klotho captured (about 100 RU) on immobilised anti-His antibody

binding, binds:
B1, B11, B2, B3

Molecular target: soluble human β-Klotho (human) (UniProt Q86Z14)
Assay: Biacore sandwich binning: 24H11 immobilised, 10 nM hubK (human β-Klotho) captured, antibody injected about 320-500 s; antibody concentration not given

binding, binds:
B4

Molecular target: soluble human β-Klotho (human) (UniProt Q86Z14)
Assay: ELISA: β-Klotho (2 µg/ml) on streptavidin coated Maxisorp plates, antibody in 3-fold serial dilutions, HRP anti-human Fc detection, Lumiglo, RLU (Example 14.1)

binding, binds:
B5, B6, B10, B1, B11

Molecular target: soluble human β-Klotho (human) (UniProt Q86Z14)
Assay: Biacore sandwich binning (Example 8): 17D8 immobilised, soluble human β-Klotho (or FGFR1c/β-Klotho ECD-Fc complex) captured on it, analyte injected about 775-1375 s; analyte concentration not given

binding, binds:
B10

Molecular target: soluble human β-Klotho (human) (UniProt Q86Z14)
Assay: Biacore sandwich binning (Example 8): 24H11 immobilised, soluble human β-Klotho (or FGFR1c/β-Klotho ECD-Fc complex) captured on it, analyte injected about 775-1375 s; analyte concentration not given

binding, binds:
B7, B8

Molecular target: soluble human β-Klotho (human) (UniProt Q86Z14)
Assay: Biacore sandwich binning (Example 8): surface not named on the sheet, by paragraph 412 the third immobilised antibody is 1A2.1; soluble human β-Klotho (or FGFR1c/β-Klotho ECD-Fc complex) captured, analyte injected about 775-1375 s; concentration not given

binding, binds:
B7, B8, B10
